# Source: patent US11389453B2, “Compositions and methods for treating chemosensory dysfunction” (Cyrano Therapeutics, Inc., priority 2005, dated 2022)
# System: TRAIL
# Test: TRAIL in nasal mucus of patients with hyposmia before and after treatment with theophylline
# Format: in vivo, human
# Settings: patients with hyposmia (5)
smiles,measurement,setting,value
Cn1c(=O)c2[nH]cnc2n(C)c1=O [theophylline],PROTEIN,theophylline 200 mg,1.29 mg/dL
same,PROTEIN,theophylline 400 mg,2.06 mg/dL
same,PROTEIN,theophylline 600 mg,2.00 mg/dL
